Among the data in article PMC11984406 are binding values, retold here.

Chains of the proteins cited; added tags and fusions are not shown.
UniProt P35222: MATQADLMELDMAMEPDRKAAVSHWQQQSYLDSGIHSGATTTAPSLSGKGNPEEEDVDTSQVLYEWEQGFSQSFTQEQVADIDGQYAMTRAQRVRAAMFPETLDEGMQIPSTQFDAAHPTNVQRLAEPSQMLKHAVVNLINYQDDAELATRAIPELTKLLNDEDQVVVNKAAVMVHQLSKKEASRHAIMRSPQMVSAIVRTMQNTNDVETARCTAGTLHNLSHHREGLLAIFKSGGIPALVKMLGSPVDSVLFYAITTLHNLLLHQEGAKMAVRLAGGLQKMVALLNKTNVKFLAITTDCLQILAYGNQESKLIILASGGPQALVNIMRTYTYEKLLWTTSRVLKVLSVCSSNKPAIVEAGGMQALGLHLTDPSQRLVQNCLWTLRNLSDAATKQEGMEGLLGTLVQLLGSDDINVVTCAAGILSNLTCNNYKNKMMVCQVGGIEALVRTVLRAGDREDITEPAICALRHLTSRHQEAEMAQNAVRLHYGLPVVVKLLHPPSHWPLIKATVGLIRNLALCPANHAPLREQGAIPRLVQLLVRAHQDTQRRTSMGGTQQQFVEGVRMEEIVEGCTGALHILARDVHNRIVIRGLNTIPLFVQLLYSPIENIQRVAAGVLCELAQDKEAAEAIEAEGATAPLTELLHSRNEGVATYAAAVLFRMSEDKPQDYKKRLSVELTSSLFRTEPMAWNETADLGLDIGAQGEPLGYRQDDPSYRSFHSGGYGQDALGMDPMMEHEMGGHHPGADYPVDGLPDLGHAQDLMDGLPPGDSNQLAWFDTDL

No constants are given. Whether binding was seen depends on the method and setting. For part of these data: In cells and extracts the contact can be indirect. Some entries that bind do so weakly or less than the wild type. Tags and fused reporters may be left off the sequences shown.

For one experiment, the target named is T1, GST-RNF138 (UniProt Q8WVD3).
T1 sequence: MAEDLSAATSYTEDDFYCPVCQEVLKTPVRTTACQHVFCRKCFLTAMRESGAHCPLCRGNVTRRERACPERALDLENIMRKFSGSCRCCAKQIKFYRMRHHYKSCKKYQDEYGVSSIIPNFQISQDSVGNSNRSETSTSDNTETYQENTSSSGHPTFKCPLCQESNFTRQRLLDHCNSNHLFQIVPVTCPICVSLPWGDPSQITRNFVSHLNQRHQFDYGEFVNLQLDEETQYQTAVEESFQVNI
Description: pull-down; purified recombinant GST-RNF138, His-APC (N-terminal) and His-β-catenin incubated together overnight at 4°C in 25 mM Tris, 300 mM NaCl, 2 mM DTT, 2% glycerol, 0.1% Tween-20, pH 8.0; GST beads; immunoblot; both purified.

A further experiment addresses T2, GFP-RNF138 (UniProt Q8WVD3).
T2 sequence: T1 sequence
As to the kind of experiment: co-IP; lysates of HEK-293T cells transfected with GFP-RNF138 or GFP; anti-GFP nanobody agarose beads overnight at 4°C; IP lysis buffer 30 mM Tris pH 7.5, 150 mM NaCl, 10% glycerol, 1% Triton X-100; blots for β-catenin, APC, p62 and GFP.

In the case of “His-β-catenin (from UniProt P35222 1-781)”, the binding entry in the experiment with GST-RNF138 is on record as “binds”. With β-catenin (from UniProt P35222 1-781), the binding entry with GFP-RNF138 is “binds”.

As to p62 (from UniProt Q13501 1-440), the binding entry with GFP-RNF138 is listed as “binds”.
